This assay concerns the target FolSvp1 without the signal peptide (ΔSPFolSvp1), two-hybrid bait (Fusarium oxysporum f. sp. lycopersici). The assay is described as follows: two-hybrid; GAL4-based, pairs co-transformed into Y2HGold: bait in pGBKT7, prey in pGADT7; growth on DDO and QDO/A (125 ng/ml AbA); all constructs without the predicted signal peptide.

These are yes or no findings as the source states them, for the method shown. A result given as binding can be weak or reduced; the word gives no strength.

B1: SlPR1 without the signal peptide (ΔSPSlPR1), two-hybrid prey (protein, UniProt P04284 25-159)
chain: QNSPQDYLAVHNDARAQVGVGPMSWDANLASRAQNYANSRAGDCNLIHSGAGENLAKGGGDFTGRAAVQLWVSERPSYNYATNQCVGGKKCRHYTQVVWRNSVRLGCGRARCNNGWWFISCNYDPVGNWIGQRPY
Turning to B1, the binding entry is reported as “binds”.

The record behind these values is publication PMC9681213.
